# Library screening results

By UniProt entry, the sequences of proteins in these tests, tags left out.
UniProt E9BF75, entry or part of it: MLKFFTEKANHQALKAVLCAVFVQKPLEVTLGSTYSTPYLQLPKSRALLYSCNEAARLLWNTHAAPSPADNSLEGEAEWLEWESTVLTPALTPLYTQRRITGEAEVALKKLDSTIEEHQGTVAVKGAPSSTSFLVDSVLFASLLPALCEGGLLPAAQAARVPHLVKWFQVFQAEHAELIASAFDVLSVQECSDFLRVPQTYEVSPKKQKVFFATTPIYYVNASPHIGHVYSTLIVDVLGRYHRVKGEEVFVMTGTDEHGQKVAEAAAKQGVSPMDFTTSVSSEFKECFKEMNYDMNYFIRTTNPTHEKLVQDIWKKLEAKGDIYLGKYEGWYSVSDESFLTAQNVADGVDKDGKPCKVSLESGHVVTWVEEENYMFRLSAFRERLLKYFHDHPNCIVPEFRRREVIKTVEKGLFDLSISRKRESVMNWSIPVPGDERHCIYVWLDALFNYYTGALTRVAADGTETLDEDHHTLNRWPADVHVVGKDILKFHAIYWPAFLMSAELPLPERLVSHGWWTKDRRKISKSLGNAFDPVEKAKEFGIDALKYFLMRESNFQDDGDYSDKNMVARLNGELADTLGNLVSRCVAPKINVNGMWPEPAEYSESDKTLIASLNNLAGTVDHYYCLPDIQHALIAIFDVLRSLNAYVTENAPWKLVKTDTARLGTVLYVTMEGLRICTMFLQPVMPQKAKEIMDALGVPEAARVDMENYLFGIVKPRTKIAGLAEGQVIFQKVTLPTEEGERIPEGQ

LdMetRS: 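Methionyl-tRNA synthetase (putative), Leishmania donovani (UniProt E9BF75). Primary screen of methionyl-tRNA synthetase; the read-out is not stated. The test concentration is not given. The values are filed as inhibition. Size under these conditions: about 68,000 compounds, about 24 of them at 50% or above in at least one test.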
Mtb heat-shock: 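Assay on Mycobacterium tuberculosis, filed only as a heat shock assay from Cornell; the read-out is not stated. The concentration is filed as 10 mM, unlikely as a test dose, so the dose is not known. Direction is inferred from retests: higher values go with stronger inhibition. Of about 69,000 compounds tested this way, about 930 (1.4%) reached 50% or more in at least one test.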

All values are in %.
The record does not define 0% and 100%; most values in the screen are far below 50% and negative numbers occur (in some assays of this library far below -100).
This is an unselected part of the compounds tested.

structure: O=C(O)c1cccc(CC2CCN(c3cnccn3)CC2)c1
LdMetRS: 1.718%
Mtb heat-shock: -6.141%

structure: CC(C)c1cc(N2CCC(CCC(=O)NC3CC3)CC2)n2nccc2n1
LdMetRS: 11.85%
Mtb heat-shock: -18.15%

structure: CN(C)S(=O)(=O)N1CC[C@]2(C[C@@H](OCc3ccccn3)CO2)C1
LdMetRS: 10.28%

structure: Cc1cccc(Oc2ccccc2CNC(=O)C2CCC(=O)NC2)c1 (stereo not shown)
LdMetRS: 22.06%
Mtb heat-shock: -10.57%

structure: Cc1cc2nc(C(C)C)cc(NCc3ccncc3)n2n1
LdMetRS: 10.09%
Mtb heat-shock: 10.36%

structure: COc1ccccc1Oc1cncc(C2CCCN(C)C2)n1 (stereo not shown)
LdMetRS: 10.32%
Mtb heat-shock: -7.669%

structure: CCOC(=O)c1nnc2ccccc2c1N1CCN(CC)CC1
LdMetRS: 14.91%
Mtb heat-shock: -6.027%

structure: [H][C@@]12CN(C(=O)c3cnccn3)C[C@]1([H])C(=O)N(Cc1csc(C)n1)C2
Mtb heat-shock: -0.04138%

structure: O=C(NCCc1ccccc1)NCC(O)c1cccc(F)c1 (stereo not shown)
LdMetRS: 21.65%
Mtb heat-shock: -18.58%

structure: COC(=O)c1ccoc1CN(C)CC(=O)NC1CCS(=O)(=O)C1 (stereo not shown)
LdMetRS: 14.6%
Mtb heat-shock: 14.48%

structure: OCC1(NCc2cnc(-c3ccsc3)s2)CCOCC1
LdMetRS: 18.78%
Mtb heat-shock: -6.773%

structure: O=C(NCCC1CCCCO1)c1cc(COc2cncc(Cl)c2)on1 (stereo not shown)
LdMetRS: 10.96%
Mtb heat-shock: -30.76%

structure: CN(C)CC1CN(Cc2nnc(C(C)(C)C)o2)CCO1 (stereo not shown)
LdMetRS: 0.5587%
Mtb heat-shock: -20.05%

structure: COc1ccccc1CNC(=O)COc1ccc2c(c1)OCC2O (stereo not shown)
LdMetRS: 12.71%
Mtb heat-shock: -36.82%

structure: CC(C)(C)c1nc(CN(Cc2ccccc2Cl)C2CCCC2)no1
LdMetRS: 14.08%
Mtb heat-shock: -6.529%

structure: O=C(c1cscn1)N1CC[C@@H]2[C@@H]1CCN2C1CCOCC1
LdMetRS: 10.93%

structure: OCC(O)CSCc1nnc(-c2ccc(Cl)cc2)o1 (stereo not shown)
LdMetRS: 12.32%
Mtb heat-shock: 16.4%

structure: COc1cc(N(C)Cc2cc(C(C)(C)C)n[nH]2)ncn1
LdMetRS: 4.532%
Mtb heat-shock: -150.9%

structure: CCN1CCC(CC(=O)NCc2cc(C)nn2C)CC1
LdMetRS: 17.37%
Mtb heat-shock: 1.724%

structure: O=C(c1ncoc1-c1ccco1)N(Cc1ccco1)CC1CCCO1 (stereo not shown)
LdMetRS: 10.14%
Mtb heat-shock: 18.21%

structure: CCN1CCC(NC(=O)CN2CCCC2Cn2cncn2)CC1 (stereo not shown)
LdMetRS: 11.81%
Mtb heat-shock: -3.919%

structure: [H][C@]12CN(C(=O)C3CC3)CCN1C[C@H](c1ccccc1)[C@H]2C(=O)OCC
Mtb heat-shock: -22.13%

structure: Cc1noc(C(C)C)c1C(=O)NCC(c1ccccc1)N(C)C (stereo not shown)
LdMetRS: 16.11%
Mtb heat-shock: -6.338%

structure: Cc1ccc(S(=O)(=O)NC(=O)c2c(C)noc2C(C)C)cc1C
LdMetRS: 21.13%
Mtb heat-shock: -6.712%

structure: NC(=O)Cn1cc(NC(=O)N2CCCCCC2)cn1
LdMetRS: 14.21%
Mtb heat-shock: 15.21%

structure: Cn1ccc(C(=O)N2CCc3[nH]nc(Nc4ccccc4)c3C2)n1
LdMetRS: 14.06%
Mtb heat-shock: -5.529%

structure: CCC[C@H]1CN(Cc2cncn2C)C[C@@H]1NC(=O)C1(COC)CCC1
LdMetRS: 12.41%
Mtb heat-shock: -3.733%

structure: CC(C)CCc1noc(CN2CCCN(C(=O)c3ccco3)CC2)n1
LdMetRS: 13.5%
Mtb heat-shock: -20.04%

The first 2 entries again:

structure,LdMetRS,Mtb heat-shock
O=C(O)c1cccc(CC2CCN(c3cnccn3)CC2)c1,1.718%,-6.141%
CC(C)c1cc(N2CCC(CCC(=O)NC3CC3)CC2)n2nccc2n1,11.85%,-18.15%

Measurements from “University of Dundee, Small-Polar-MMV Screening Library” (2021), ChEMBL document CHEMBL3988442.